Test results as given in PMC2758594.

Target: T1, endogenous hARD1 (human (endogenous in HT1080)) (UniProt P41227)
T1 sequence: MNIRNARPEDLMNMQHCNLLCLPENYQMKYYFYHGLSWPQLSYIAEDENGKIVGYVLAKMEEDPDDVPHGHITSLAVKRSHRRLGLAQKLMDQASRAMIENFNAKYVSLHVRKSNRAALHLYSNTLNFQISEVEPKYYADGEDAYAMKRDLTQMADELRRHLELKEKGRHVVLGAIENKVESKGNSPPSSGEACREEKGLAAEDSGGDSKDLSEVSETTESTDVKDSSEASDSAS
Assay: co-IP; endogenous proteins in HT1080 cells; IP with anti-ARD1, blot with anti-MLCK; cross-checked by changing antibodies

binding: binds
Substance: endogenous long MLCK (human (endogenous in HT1080))

No constants are given. Whether binding was seen depends on the method and setting. Binding seen in cells or lysates may run through a third protein. Binding can be weak; no strength is given.
